Measurements reported in PubChem BioAssay AID686943 (Drosophila RNAi Screening Center, 2013).
The screen tested about 23,000 reagents; this is an unselected part of those with a known target gene and a result. 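Extra replicates exist only for a retested subset of genes; insulin dose and duration not given; both raised and lowered dpERK matter.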 Reagents against one gene are numbered here. A plus sign joins genes that one reagent is predicted to hit. Not all columns of the deposit are shown. The record does not give: the amount of reagent, the time to read-out.

Test: 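Search across the genome for regulators of signalling from receptor tyrosine kinase to ERK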 (primary screen)
Cell system: Drosophila S2R+ haemocyte-like cells expressing YFP-tagged ERK (Rolled)
Reagent: long dsRNA against Drosophila genes
Treatment: insulin stimulation versus unstimulated cells; dose and duration not given
Measurement: 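Antibody staining for doubly phosphorylated ERK divided by ERK-YFP signal, as plate z-scores, in insulin-treated and untreated cells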
Scale: replicate 1, z-score of dpERK with insulin and replicate 2, z-score of dpERK with insulin: higher = more active ERK per ERK-YFP after insulin

| target | reagent no. | replicate 1, z-score of dpERK with insulin | replicate 2, z-score of dpERK with insulin |
| --- | --- | --- | --- |
| CG42380 + CG42379 + PIG-M + 1 more | 1 | -0.79 | -1.43 |
| CG42380 + CG42379 + PIG-M + 1 more | 2 | -0.95 | -1.05 |
| Txl | 1 | 0.07 | -0.76 |
| CG4701 | 1 | -0.93 | -1.47 |
| Rab10 | 1 | -0.52 | -0.19 |
| CG3597 | 1 | -0.41 | -1.12 |
| CG8641 | 1 | 0.5 | -0.56 |
| Ube4A | 1 | 0.48 | 1.63 |
| MED7 | 1 | 1.27 | 2.04 |
| CG6738 | 1 | -0.56 | -0.59 |
| VhaAC45RP | 1 | -0.01 | 0.71 |
| rt | 1 | 0.24 | 0.17 |
| nesd | 1 | -0.23 | 0.88 |
| Prp5 | 1 | 1.48 | 2.93 |
| Acsf2 | 1 | -0.49 | 0.09 |
| Tb | 1 | -0.37 | 0.07 |
| CG6638 | 1 | -0.16 | -0.54 |
| CG3748 | 1 | 0.46 | 0.94 |
| RpL30 | 1 | -1.06 | -1.63 |
| Cpr76Bc | 1 | 0.17 | -0.32 |
| CG2121 | 1 | 0.62 | -0.02 |
| CG2121 | 2 | 1.25 | 0.79 |
| Ag5r | 1 | 0.42 | 0.77 |
| CG9263 | 1 | 1.37 | 0.38 |
| CG15873 | 1 | 0.17 | -0.46 |
| CG11626 | 1 | -0.13 | -0.13 |
| CG2736 | 1 | 0.18 | -0.08 |
| CG13744 | 1 | 0.69 | -0.18 |
| osa | 1 | 1.81 | 1.05 |
| GAPcenA | 1 | -0.03 | -0.15 |
| CG31693 | 1 | 0.56 | -0.37 |
| Chc | 1 | 0.25 | 0.96 |
| endos | 1 | 1.55 | 0.88 |
| CG15020 | 1 | 0.27 | 0.49 |
| CG1307 | 1 | -0.64 | -0.16 |
| CG14042 + SP555 | 1 | 1.47 | 0.8 |
| CG14042 + SP555 | 2 | 0.56 | 0.34 |
| Ugt49C1 | 1 | -0.31 | -0.07 |
| CG14492 | 1 | -0.12 | -0.34 |
| CG42685 | 1 | -0.36 | 0.02 |
| yellow-g2 | 1 | 0.38 | 1.29 |
| zetaTry | 1 | 0.86 | 0.36 |
| CG3734 | 1 | 0.16 | -0.93 |
| EndoU | 1 | 0.44 | -1.74 |
| CG3513 | 1 | 0.32 | 0.52 |
| CG15362 | 1 | -0.55 | -0.22 |
| Klf15 | 1 | 0.14 | 0.08 |
| Or10a | 1 | -0.03 | 0.43 |
| PGAP1 | 1 | -0.45 | -0.45 |
| Lrpprc2 | 1 | -0.19 | -0.39 |
| Dhx15 | 1 | 0.93 | 1.33 |
| CG9555 | 1 | -0.35 | -0.07 |
| CG5895 | 1 | 1.07 | -0.07 |
| CG6216 | 1 | -0.09 | -0.06 |
| CG15098 | 1 | -1.22 | -1.6 |
| CG12105 | 1 | 0.03 | 0.18 |
| CG8321 | 1 | 0.16 | 0.83 |

Already shown: entries from further up.
| target | reagent no. | replicate 1, z-score of dpERK with insulin | replicate 2, z-score of dpERK with insulin |
| --- | --- | --- | --- |
| CG9263 | 1 | 1.37 | 0.38 |
| CG15873 | 1 | 0.17 | -0.46 |
| CG11626 | 1 | -0.13 | -0.13 |
| CG2736 | 1 | 0.18 | -0.08 |
